# Source: PubChem BioAssay AID540276 (National Center for Advancing Translational Sciences (NCATS), 2011)
# In all, about 300,000 compounds went through this assay and about 5,400 (1.8%) were called active. Inconclusive results, whose numbers are uncertain, are shown with a selection of clear calls. Calls follow the shape of the full dose curve; tested in HEK293 cells. Potencies beside an inconclusive call are fits to weak or partial responses and may not hold up.
# Assay: qHTS for inhibitors of binding or entry into cells for Marburg Virus
# Conditions: Marburg virus pseudotyped entry inhibition, cell reporter; activity change, negative = inhibition: at 37.8 µM (top of the series) unless noted
# % is scaled to controls: 0 for no effect and ±100 for the full control effect; potency is read from the fitted curve at half-maximal effect.
SMILES,Potency,"activity change, negative = inhibition"
Cc1cccc(Cn2cnc3c(N)c(C)c(C)cc32)c1,"inconclusive: 6.31 µM [inhibitor, single point]",
CCCc1cc(=O)oc2cc(OCC(=O)NCCCN3CCOCC3)ccc12,,inactive: -0.299% [at 46.1 µM]
CCOc1ccc(OCCn2ccnc2)cc1,"inconclusive: 0.0891 µM [inhibitor, full curve, poor fit]",
CC(C)(C)c1cc(CN2CCC(O)CC2)cc(C(C)(C)C)c1O,"inconclusive: 7.3 µM [inhibitor, partial curve]",
CCOc1cc(Cl)c(S(=O)(=O)n2cc(C)nc2CC)cc1Cl,,inactive: -19.5% [at 46.1 µM]
CCOC(CNC(=O)Cc1c(C)nc2c(-c3ccccc3)c(C)nn2c1C)OCC,,inactive: 27.9% [at 46.1 µM]
CCCCCCSc1nnc(N)s1,,inactive: -22.7% [at 46.1 µM]
CCC(CC)C(=O)Nc1cccc(/C(C)=N/NC(=O)c2c(Br)cnn2C)c1,,inactive: -2.6%
O=C(Nc1ccccc1)Nc1ccc(S(=O)(=O)N2CCCCC2)cc1,,inactive: -16% [at 46.1 µM]
CC(=O)c1ccc(OC(NC(=O)c2ccco2)C(Cl)(Cl)Cl)cc1 (centres undefined),"inconclusive: 0.73 µM [activator, full curve, poor fit]",
O=C(/C=C/Nc1ccccc1F)c1cccs1,active: 6.31 µM,
CC1CCCN(CCCNC(=O)c2nn(C)c3c2CSc2ccccc2-3)C1 (centres undefined),"inconclusive: 7.08 µM [inhibitor, full curve, poor fit]",
CCn1cc(S(=O)(=O)c2ccc(C)cc2)c(=O)c2cc(F)c(N3CCN(C)CC3)cc21,"inconclusive: 22.4 µM [inhibitor, single point]",
c1ccc(CNc2ncnc3sc4c(c23)CCC4)nc1,,inactive: 14.6%
COc1cc(/C=C2/C(=N)N3C=CSC3=NC2=O)ccc1OCCCOc1ccccc1C,"inconclusive: 29.1 µM [inhibitor, single point]",
CCOc1ccc(NC(=O)Cn2cncc2-c2ccc([N+](=O)[O-])cc2)cc1,"inconclusive: 35.5 µM [inhibitor, single point]",
COc1cccc(N=Cc2nc(-c3ccccc3)oc2OC(C)=O)c1,,inactive: 4.2% [at 46.1 µM]
CC(NC(=O)c1ccco1)C1COc2ccccc2O1 (centres undefined),,inactive: 0.107%
Cc1ccc(-c2nc(SCC(=O)Nc3cc(C)on3)c3c(=O)n(C)c(=O)n(C)c3n2)cc1,"inconclusive: 14.1 µM [activator, single point]",
O=C(CC(=O)Nc1ccccc1F)Nc1ccc2nc3n(c(=O)c2c1)CCCCC3,,inactive: 8.42% [at 46.1 µM]
COc1ccc(N2CCN(Cc3cc(=O)oc4cc(C)c(Cl)c(C)c34)CC2)cc1,inactive,
O=C(O)CC(Cn1[nH]nnc1=S)c1ccccc1 (centres undefined),,inactive: 2.79%
O=C(Nc1cccc(F)c1)c1ccc(-c2ccccc2Cl)o1,,inactive: -23.3%
O=C(CSc1nnc(-c2cccc(Cl)c2)o1)Nc1ccc2c(c1)OCCO2,"inconclusive: 2.31 µM [activator, single point]",
CN1CCN(c2ccc(S(=O)(=O)N3CCCCC3)cc2NC(=O)Cc2ccccc2F)CC1,"inconclusive: 35.5 µM [inhibitor, single point]",

# 2 successive entries out of the list so far:
SMILES,Potency,"activity change, negative = inhibition"
O=C(O)CC(Cn1[nH]nnc1=S)c1ccccc1 (centres undefined),,inactive: 2.79%
O=C(Nc1cccc(F)c1)c1ccc(-c2ccccc2Cl)o1,,inactive: -23.3%

# Later entries.

SMILES,Potency,"activity change, negative = inhibition"
CN1C(=O)C(=Cc2ccccc2Oc2ccc(Cl)c(F)c2)C(=O)N(C)C1=O,"inconclusive: 6.31 µM [inhibitor, full curve, poor fit]",
O=C(NCCNC(=O)c1cnccn1)c1ccc(Cl)cc1,,inactive: -10.8% [at 46.1 µM]
COC(=O)C1C2C=CC3(CN(C4CCCC4)C(=O)C13)O2 (centres undefined),,inactive: 15.7% [at 46.1 µM]
COCCN1C(=O)c2oc3ccccc3c(=O)c2C1c1ccc(C(=O)OC)cc1 (centres undefined),,inactive: 0.0383%
O=C1c2ccccc2NC(c2ccccc2Cl)N1N=C1CCCCCC1 (centres undefined),"inconclusive: 6.51 µM [activator, single point]",
Cc1ccc(-c2nnc(CSc3nncn3N)o2)cc1,"inconclusive: 6.31 µM [activator, full curve, poor fit]",
CCCCSC(=S)NC1CCS(=O)(=O)C1 (centres undefined),"inconclusive: 5.01 µM [inhibitor, full curve]",
CC1CCC(C(C)C)C(OC(=O)COC(=O)c2cc(O)ccc2N)C1 (centres undefined),"inconclusive: 0.1 µM [inhibitor, full curve, poor fit]",
O=C(Nc1ccccc1)SC1CCCCC1,"inconclusive: 5.62 µM [activator, single point]",
CC(OC(=O)c1ccc(Br)c(S(=O)(=O)N2CCOCC2)c1)C(=O)NC1CCCCC1C (centres undefined),"inconclusive: 3.16 µM [inhibitor, partial curve, poor fit]",
Cc1cccc2c(CCNC(=O)c3ccc([N+](=O)[O-])cc3)c[nH]c12,,inactive: 11%
Cn1c(=O)c2c(nc3n2CC(O)CN3c2ccc(O)cc2)n(C)c1=O (centres undefined),,inactive: 5.43% [at 46.1 µM]
CC(C)n1cnc2c(oc3ccccc32)c1=O,"inconclusive: 2.82 µM [activator, full curve]",
COc1cc2c(cc1OC)C(c1ccc(-c3ccccc3Cl)o1)=NCC2,active: 20.6 µM,
Cc1ccccc1-c1cc(C(=O)n2cccn2)c2cc(Cl)ccc2n1,"inconclusive: 23.1 µM [inhibitor, single point]",
OCC1(Cc2ccccc2)CCN(Cc2cnc(-c3cccc4ccccc34)nc2)CC1,"inconclusive: 35.5 µM [inhibitor, single point]",
CC(C)CNC(=S)NC1CC2CCCC(C1)N2Cc1ccco1 (centres undefined),"inconclusive: 0.73 µM [inhibitor, full curve, poor fit]",
CN(C)S(=O)(=O)c1ccc(NC(=O)/C=C/c2ccccc2Cl)cc1,"inconclusive: 35.5 µM [inhibitor, single point]",
O=[N+]([O-])c1ccc(Cl)cc1C=NNc1ccccn1,,inactive: -2.05%
CCCCOC(=O)c1ccc(Nc2nc3ccc(C)cc3n3cnnc23)cc1,"inconclusive: 35.5 µM [activator, single point]",
CCOC(=O)C1=C(C)NC(C)=C(C(=O)OCC)C1c1sccc1C,"inconclusive: 0.517 µM [inhibitor, partial curve, poor fit]",
O=C(CN(c1ccccc1F)S(=O)(=O)c1ccccc1)Nc1ccc2c(c1)OCCO2,"inconclusive: 35.5 µM [inhibitor, single point]",
Cc1cc(C)n(C(=O)CNC(=O)c2cccc(F)c2)n1,,inactive: -13.5% [at 46.1 µM]
O=C(CCC(=O)c1ccccc1)NCCOc1ccccc1,"inconclusive: 15.8 µM [activator, single point]",
